experiment: general procedure: Fmoc solid-phase peptide synthesis; DMT/NMM/TosO-, NMM; details: whole synthesis, HPLC (10-100% B in 30 min, Method 1), scale of the general procedure 0.5 g resin

Compared with ^10HDGYCLHDGVCMY^22, ^10HDGYCL^15 is lower in “crude HPLC purity” value: 91.7% for the first, 84.5% for the second.

Compared with ^10HDGYCL^15+^29Y+^41R, ^13YCLHDGV^19 is higher in “crude HPLC purity” value: 81.5% for the first, 89.5% for the second.

Going from ^22YIEALDK^28 to ^26LDKYACNCV^34, the “crude HPLC purity” value falls from 83.0% to 79.2%.

First: ^34VVGYIGERCQYRDL^47
Second: ^38IGERCQ^43
The “crude HPLC purity” value of the first is lower: 87.7% for the first, 90% for the second.

In the case of ^43QYRDL^47, the “crude HPLC purity” value is reported as 75.1%.

Reference: paper PMC10855902 (International Journal of Molecular Sciences, 2024)
